Data taken from doi:10.1101/2025.05.19.654879.
Results are given in words; binding and its absence hold for the method and conditions named. Binding seen in cells or lysates may run through a third protein. Some results given as binding are weak or reduced against the parent protein; the word gives no strength.

By UniProt entry, the sequences of proteins in these tests, tags left out. Where a name states a change or a piece, a line headed by the entry shows the natural chain unless it says otherwise. Residues count along the entry.
UniProt Q96P20: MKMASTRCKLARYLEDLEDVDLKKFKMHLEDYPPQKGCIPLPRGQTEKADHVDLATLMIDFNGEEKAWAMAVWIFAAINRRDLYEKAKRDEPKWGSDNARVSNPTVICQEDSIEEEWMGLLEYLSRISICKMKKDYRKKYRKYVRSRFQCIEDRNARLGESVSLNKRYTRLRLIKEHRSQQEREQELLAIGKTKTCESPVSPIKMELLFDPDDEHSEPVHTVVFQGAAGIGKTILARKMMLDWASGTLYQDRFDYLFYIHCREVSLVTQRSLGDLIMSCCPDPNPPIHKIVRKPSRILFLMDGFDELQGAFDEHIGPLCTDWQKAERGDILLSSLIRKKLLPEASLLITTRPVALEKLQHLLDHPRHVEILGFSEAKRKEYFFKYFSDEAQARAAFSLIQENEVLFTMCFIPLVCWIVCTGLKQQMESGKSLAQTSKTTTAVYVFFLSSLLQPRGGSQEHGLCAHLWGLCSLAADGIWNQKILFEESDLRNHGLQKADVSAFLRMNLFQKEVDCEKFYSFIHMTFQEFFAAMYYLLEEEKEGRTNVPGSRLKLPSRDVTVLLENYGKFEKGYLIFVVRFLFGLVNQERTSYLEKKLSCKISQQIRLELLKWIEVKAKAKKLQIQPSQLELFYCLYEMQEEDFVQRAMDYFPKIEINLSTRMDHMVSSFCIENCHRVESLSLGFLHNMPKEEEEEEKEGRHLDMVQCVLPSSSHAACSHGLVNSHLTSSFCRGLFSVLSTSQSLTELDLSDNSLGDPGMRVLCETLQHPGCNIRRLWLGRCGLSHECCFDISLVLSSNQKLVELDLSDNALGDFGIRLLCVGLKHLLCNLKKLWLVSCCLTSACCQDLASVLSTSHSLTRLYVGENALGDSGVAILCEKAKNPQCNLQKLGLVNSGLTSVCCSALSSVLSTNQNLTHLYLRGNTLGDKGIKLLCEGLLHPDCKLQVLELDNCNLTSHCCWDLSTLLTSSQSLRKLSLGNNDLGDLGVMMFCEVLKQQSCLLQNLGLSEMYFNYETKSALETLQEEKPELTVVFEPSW
Flag-NLRP3_(132-1036): residues 132-1036 of Q96P20
UniProt Q7L804: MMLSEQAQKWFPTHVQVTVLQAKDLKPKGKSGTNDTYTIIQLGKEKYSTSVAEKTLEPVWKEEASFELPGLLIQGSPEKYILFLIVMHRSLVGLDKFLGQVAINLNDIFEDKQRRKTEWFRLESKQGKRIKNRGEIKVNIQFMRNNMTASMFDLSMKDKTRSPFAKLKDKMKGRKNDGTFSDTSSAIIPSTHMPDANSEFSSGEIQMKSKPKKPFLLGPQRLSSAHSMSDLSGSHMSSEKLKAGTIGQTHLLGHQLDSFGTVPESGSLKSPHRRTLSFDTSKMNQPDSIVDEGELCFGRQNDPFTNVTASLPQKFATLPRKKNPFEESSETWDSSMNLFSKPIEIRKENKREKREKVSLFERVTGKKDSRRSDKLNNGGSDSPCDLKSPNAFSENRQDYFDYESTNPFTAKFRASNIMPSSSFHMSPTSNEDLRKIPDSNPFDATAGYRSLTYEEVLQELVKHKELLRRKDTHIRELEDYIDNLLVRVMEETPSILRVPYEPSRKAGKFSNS
Flag-FIP2_(1-192): residues 1-192 of Q7L804
Flag-FIP2_(193-512): residues 193-512 of Q7L804
UniProt Q9ULZ3: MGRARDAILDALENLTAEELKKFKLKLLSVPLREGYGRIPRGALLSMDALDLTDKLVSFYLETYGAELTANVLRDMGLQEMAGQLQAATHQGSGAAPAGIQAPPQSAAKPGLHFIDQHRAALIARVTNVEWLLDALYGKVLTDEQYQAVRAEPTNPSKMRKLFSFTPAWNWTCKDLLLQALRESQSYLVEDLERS

Columns and labels:
Assay in all cases: co-IP
[1] = biological target: Flag-NLRP3 (full length human NLRP3) (human) (UniProt Q96P20)
[2] = biological target: Flag-NLRP3_(132-1036) (human) (UniProt Q96P20)
[3] = biological target: Flag-FIP2 (full-length Rab11-FIP2) (human) (UniProt Q7L804)
[4] = biological target: Flag-FIP2_(1-192) (human) (UniProt Q7L804)
[5] = biological target: Flag-FIP2_(193-512) (human) (UniProt Q7L804)

Substance | binding [1] | binding [2] | binding [3] | binding [4] | binding [5]
EGFP-FIP2 (Rab11-FIP2) (from UniProt Q7L804 1-512) | binds | no binding | – | – | –
EGFP-FIP2_(I481E) (from UniProt Q7L804 1-512) | no binding | – | – | – | –
EGFP-NLRP3 (from UniProt Q96P20 1-1036) | – | – | binds | binds | no binding
HA-ASC (from UniProt Q9ULZ3 1-195) | – | – | no binding | – | –
